Measured data: PubChem BioAssay AID1508587 (Peter MacCallum Cancer Centre, 2020)

Test: 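Knockdowns that add to vemurafenib's cut in melanoma glycolysis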 (follow-up of hits)
System: human WM266.4 melanoma cells with a BRAF V600 mutation
Reagents: single siRNA against human genes, 25 nM
Time to read-out: 96 h
Challenge: vemurafenib 300 nM (about IC25), given 48 h after transfection for 48 h
Read-out: 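Medium lactate read by absorbance over DAPI-counted nuclei; ratio with versus without vemurafenib, set against non-targeting siRNA, averaged over 2 replicates; cell number also recorded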
Direction: lactate per cell, drug vs no drug: higher = less drug-induced drop in lactate per cell
Call rule: 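Enhancer call for any duplex whose drug versus no-drug per-cell lactate ratio is below 0.55 (2 SD beneath non-targeting average); genes confirmed when at least 2 of their 4 duplexes qualify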
Shown is an unselected part of about 1,600 reagents. Of all reagents, 623 (39%) got an active call. 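Calls are for each duplex; lactate ratios contain extreme outliers.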 Entries without a mark were called inactive. The numbers tell different reagents against one gene apart. Not all columns of the deposit are shown. Reagent sequences are not shown.

Against CYSTM1 (cysteine rich transmembrane module containing 1) #1, the values are lactate per cell, drug vs no drug 0.64.
For CYSTM1 (cysteine rich transmembrane module containing 1) #2, the values are lactate per cell, drug vs no drug 0.55.
For CYSTM1 (cysteine rich transmembrane module containing 1) #3, the entry reads lactate per cell, drug vs no drug 0.84.
With knock-down of CYSTM1 (cysteine rich transmembrane module containing 1) #4, the record shows lactate per cell, drug vs no drug 0.71.
After knock-down of CCR1 (C-C motif chemokine receptor 1) #1, the record shows lactate per cell, drug vs no drug 0.66.
CCR1 (C-C motif chemokine receptor 1) #2 showed lactate per cell, drug vs no drug 0.55.
CCR1 (C-C motif chemokine receptor 1) #3 scored lactate per cell, drug vs no drug 0.7.
With knock-down of CCR1 (C-C motif chemokine receptor 1) #4, the screen gave lactate per cell, drug vs no drug 0.47 (active).
RGS2 (regulator of G protein signaling 2) #1 showed lactate per cell, drug vs no drug 0.92.
Silencing of RGS2 (regulator of G protein signaling 2) #2 came out at: lactate per cell, drug vs no drug 0.58.
RGS2 (regulator of G protein signaling 2) #3 scored lactate per cell, drug vs no drug 0.3 (active).
RGS2 (regulator of G protein signaling 2) #4 scored lactate per cell, drug vs no drug 0.74.
PRR30 (proline rich 30) #1 scored lactate per cell, drug vs no drug 0.42 (active).
For PRR30 (proline rich 30) #2 the deposit lists lactate per cell, drug vs no drug 0.52 (active).
Against PRR30 (proline rich 30) #3 the deposit lists lactate per cell, drug vs no drug 0.6.
Silencing of PRR30 (proline rich 30) #4 resulted in: lactate per cell, drug vs no drug 0.68.
With knock-down of NRP1 (neuropilin 1) #1 the results were lactate per cell, drug vs no drug 0.6.
Against NRP1 (neuropilin 1) #2, the entry reads lactate per cell, drug vs no drug 0.52 (active).
With knock-down of NRP1 (neuropilin 1) #3, the record shows lactate per cell, drug vs no drug 0.44 (active).
After knock-down of NRP1 (neuropilin 1) #4, the screen gave lactate per cell, drug vs no drug 0.68.
Against MAP2K7 (mitogen-activated protein kinase kinase 7) #1, the entry reads lactate per cell, drug vs no drug 0.57.
Knock-down of MAP2K7 (mitogen-activated protein kinase kinase 7) #2 gave: lactate per cell, drug vs no drug 0.62.
After knock-down of MAP2K7 (mitogen-activated protein kinase kinase 7) #3 the results were lactate per cell, drug vs no drug 0.79.
With knock-down of MAP2K7 (mitogen-activated protein kinase kinase 7) #4, the screen gave lactate per cell, drug vs no drug 0.56.
Depletion of GLE1 (GLE1 RNA export mediator) #1 came out at: lactate per cell, drug vs no drug 0.63.
Depletion of GLE1 (GLE1 RNA export mediator) #2 gave: lactate per cell, drug vs no drug 0.73.
For GLE1 (GLE1 RNA export mediator) #3, the values are lactate per cell, drug vs no drug 1.12.
With knock-down of GLE1 (GLE1 RNA export mediator) #4 the results were lactate per cell, drug vs no drug 0.76.

3 entries from above, reformatted:
gene knocked down | reagent no. | lactate per cell, drug vs no drug
MAP2K7 (mitogen-activated protein kinase kinase 7) | 3 | 0.79
MAP2K7 (mitogen-activated protein kinase kinase 7) | 4 | 0.56
GLE1 (GLE1 RNA export mediator) | 1 | 0.63
